Test results as given in PubChem BioAssay AID330 (DTP/NCI, 2004).
The list does not hold the whole screen: it is rich in T/C values a quarter to a half above the control, in often repeated tests (any T/C) and in doses without a T/C. Other doses and runs of a compound stand elsewhere. T/C gives the treated animals as a percentage of the vehicle group. Some entries give survivors of the animals treated and no T/C: the source holds a T/C of zero for them, seemingly a mark for toxic or unscored doses. Some doses without a T/C left all or most animals alive at the check, yet need not have been tolerated: survival well below the control is almost never listed, so the zero probably covers shortened survival too. Survivors were counted at the toxicity check, usually on the fifth day, unless a day is given; later deaths do not show. Schedules are NCI's codes, read here as Q, the interval in days (D) or hours (H), X, the number of doses. Some doses were run more than once; the values are given in rising order. Where survival is the endpoint, this PubChem deposit counts one and a half times the control or more as active, and values a quarter to a half above the control carry no call in these data; other NCI protocols may use other cut-offs. Some T/C values are followed by the survivors on the day toxicity was checked, most often the fifth; without a count, all were alive then.

Test system: P388 leukemia ip, CD2F1 mice, survival T/C
Assay: NCI In Vivo Anticancer Drug Screen. Data for tumor model P388 Leukemia (intraperitoneal) in CD2F1 (CDF1) mice
Conditions: T/C endpoint: median survival time, higher T/C = longer survival
[1] = dose: 50.0 mg/kg/injection, schedule: Q01DX009 (ip), vehicle: saline
[2] = dose: 240.0 mg/kg/injection, schedule: Q01DX005 (ip), vehicle: saline with Tween-80
[3] = dose: 200.0 mg/kg/injection, schedule: Q01DX009 (ip), vehicle: saline with Tween-80
[4] = dose: 200.0 mg/kg/injection, schedule: Q01DX005 (ip), vehicle: Klucel (hydroxypropylcellulose) (HPC)
[5] = dose: 100.0 mg/kg/injection, schedule: Q01DX005 (ip), vehicle: saline
[6] = dose: 50.0 mg/kg/injection, schedule: Q01DX005 (ip), vehicle: Klucel (hydroxypropylcellulose) (HPC)
[7] = dose: 100.0 mg/kg/injection, schedule: Q01DX005 (ip), vehicle: Klucel (hydroxypropylcellulose) (HPC)
[8] = dose: 50.0 mg/kg/injection, schedule: Q01DX005 (ip), vehicle: saline
[9] = dose: 100.0 mg/kg/injection, schedule: Q04DX003 (ip), vehicle: saline with Tween-80

## CCCS(=O)(=O)Nc1ccc(Nc2c3ccccc3nc3ccccc23)c(OC)c1
dose: 6.25 mg/kg/injection, schedule: Q01DX009 (ip), vehicle: saline
  T/C: 126 % of control [5 of 6 alive]
dose: 12.5 mg/kg/injection, schedule: Q01DX009 (ip), vehicle: saline
  T/C: 129 and 136 % of control
[1]
  T/C: 129 % of control

## Cc1cc2nc(CC(=O)c3cccnc3)c(=O)[nH]c2cc1C
dose: 60.0 mg/kg/injection, schedule: Q01DX005 (ip), vehicle: saline with Tween-80
  survivor count: 6 of 6
dose: 120.0 mg/kg/injection, schedule: Q01DX005 (ip), vehicle: saline with Tween-80
  survivor count: 6 of 6
[2]
  survivor count: 3 of 6

## CCOC(=O)CCC(C)(C#N)c1ccccc1 (stereo unspecified)
[3]
  survivor count: 4 of 6
dose: 400.0 mg/kg/injection, schedule: Q01DX009 (ip), vehicle: saline with Tween-80
  survivor count: 5 of 6

## CC(C)(C)SCC(NC(=O)OCC1c2ccccc2-c2ccccc21)C(=O)O (stereo unspecified)
[4]
  survivor count: 0 of 6

## CC1=C(Cl)CC(/C(C)=C/Cl)OC1(O)CBr (stereo unspecified)
dose: 0.75 mg/kg/injection, schedule: Q01DX009 (ip), vehicle: Klucel (hydroxypropylcellulose) (HPC)
  survivor count: 5 of 6
dose: 1.5 mg/kg/injection, schedule: Q01DX009 (ip), vehicle: Klucel (hydroxypropylcellulose) (HPC)
  survivor count: 4 of 6
dose: 3.0 mg/kg/injection, schedule: Q01DX009 (ip), vehicle: Klucel (hydroxypropylcellulose) (HPC)
  survivor count: 0 of 6

## C[N+]1(C[Si](C)(C)c2ccccc2)CCOCC1
[5]
  survivor count: 4 of 6
dose: 200.0 mg/kg/injection, schedule: Q01DX005 (ip), vehicle: saline
  survivor count: 0 of 6

## Cc1cc(C)c(N(C)C)c(C)c1
dose: 400.0 mg/kg/injection, schedule: Q04DX002 (ip), vehicle: saline with Tween-80
  survivor count: 3 of 6

## CCn1c(=O)c2[nH]c(Br)nc2n(C2CC2)c1=O
dose: 200.0 mg/kg/injection, schedule: Q01DX009 (ip), vehicle: Klucel (hydroxypropylcellulose) (HPC)
  survivor count: 3 of 6

## Cc1nc(C(Cl)(Cl)Cl)[nH]c(=O)c1SCCO
dose: 200.0 mg/kg/injection, schedule: Q01DX005 (ip), vehicle: distilled water + alcohol
  T/C: 133 % of control
dose: 400.0 mg/kg/injection, schedule: Q01DX005 (ip), vehicle: distilled water + alcohol
  T/C: 135 % of control [4 of 5 alive]

## COc1ccc2c(N/N=C/c3ccc4c(c3)OCO4)cc(C)nc2c1
[6]
  survivor count: 3 of 6
[7]
  survivor count: 0 of 6
[4]
  survivor count: 0 of 6

## COc1cccc2c1C(=O)c1c(O)c3c(c(O)c1C2=O)CC(O)(C(C)=O)CC3OC1CC(N)C(OC2CC(N)C(O)C(C)O2)C(C)O1 (stereo unspecified)
dose: 0.78 mg/kg/injection, schedule: Q01DX009 (ip), vehicle: water
  T/C: 128 and 130 % of control
dose: 1.56 mg/kg/injection, schedule: Q01DX009 (ip), vehicle: water
  T/C: 131 and 149 % of control
dose: 3.13 mg/kg/injection, schedule: Q01DX009 (ip), vehicle: water
  T/C: 149 % of control
dose: 6.25 mg/kg/injection, schedule: Q01DX009 (ip), vehicle: water
  T/C: 146 % of control
dose: 12.5 mg/kg/injection, schedule: Q01DX009 (ip), vehicle: water
  survivor count: 6 of 6
dose: 25.0 mg/kg/injection, schedule: Q01DX009 (ip), vehicle: water
  survivor count: 6 of 6

## CCC(C(=O)Nc1ccccc1-c1ccccc1)c1ccccc1 (stereo unspecified)
[1]
  survivor count: 6 of 6

## [CH3][Sn]([CH3])([O]C(=O)c1ccccc1)[O]C(=O)c1ccccc1
[4]
  survivor count: 0 of 6

## Cc1[nH]c(=O)nc(CCc2ccccc2)c1-c1ccccc1
[2]
  survivor count: 5 of 6

## COc1ncnc2nc(Cl)[nH]c12
[4]
  survivor count: 5 of 5

## C=C1C(=O)OC2/C=C(CO)/C=C\C3OC3(C)CC(OC(=O)/C(C)=C/COC(C)=O)C12 (stereo unspecified)
[7]
  survivor count: 0 of 6
[4]
  survivor count: 0 of 6

## CCc1nnc2c(c(=O)n(C)c(=O)n2C)[n+]1[O-]
dose: 200.0 mg/kg/injection, schedule: Q01DX001 (ip), vehicle: Klucel (hydroxypropylcellulose) (HPC)
  survivor count: 0 of 6
dose: 400.0 mg/kg/injection, schedule: Q01DX001 (ip), vehicle: Klucel (hydroxypropylcellulose) (HPC)
  survivor count: 1 of 6

## O=C1C=C(SCCCC(=O)N2CCOCC2)C(=O)c2ccccc21
dose: 25.0 mg/kg/injection, schedule: Q04DX003 (ip), vehicle: Klucel (hydroxypropylcellulose) (HPC)
  survivor count: 5 of 6
dose: 100.0 mg/kg/injection, schedule: Q04DX003 (ip), vehicle: Klucel (hydroxypropylcellulose) (HPC)
  survivor count: 0 of 5
dose: 200.0 mg/kg/injection, schedule: Q04DX003 (ip), vehicle: Klucel (hydroxypropylcellulose) (HPC)
  survivor count: 0 of 5
dose: 400.0 mg/kg/injection, schedule: Q04DX003 (ip), vehicle: Klucel (hydroxypropylcellulose) (HPC)
  survivor count: 0 of 5

## c1cc2c(cc1CN1CCOCC1)CCc1cc(CN3CCOCC3)ccc1N2
dose: 120.0 mg/kg/injection, schedule: Q01DX005 (ip), vehicle: Klucel (hydroxypropylcellulose) (HPC)
  survivor count: 6 of 6
dose: 240.0 mg/kg/injection, schedule: Q01DX005 (ip), vehicle: Klucel (hydroxypropylcellulose) (HPC)
  survivor count: 6 of 6

## CCOc1ccc(-n2c(C)c(COC(=O)NC)c(COC(=O)NC)c2C)cc1
dose: 25.0 mg/kg/injection, schedule: Q01DX009 (ip), vehicle: Klucel (hydroxypropylcellulose) (HPC)
  T/C: 136 % of control
dose: 50.0 mg/kg/injection, schedule: Q01DX009 (ip), vehicle: Klucel (hydroxypropylcellulose) (HPC)
  survivor count: 5 of 6

## CC1=C[P+](c2ccccc2)(c2ccccc2)C=C(C)O1
dose: 12.5 mg/kg/injection, schedule: Q01DX005 (ip), vehicle: saline
  survivor count: 2 of 5
dose: 25.0 mg/kg/injection, schedule: Q01DX005 (ip), vehicle: saline
  survivor count: 0 of 5
[8]
  survivor count: 0 of 5

## CC(=O)CC(C)=O.CC(=O)CC(C)=O.[Cl][Sn][c]1ccccc1
[8]
  T/C: 128 % of control
[5]
  T/C: 137 % of control

## S=C(NC1CCCCC1)N1CCC(CCCC2CCN(C(=S)NC3CCCCC3)CC2)CC1
[9]
  survivor count: 6 of 6
[3]
  survivor count: 6 of 6
dose: 200.0 mg/kg/injection, schedule: Q04DX003 (ip), vehicle: saline with Tween-80
  survivor count: 6 of 6

## CC(=O)OC1C2C(OC3OC(=O)/C(=C\C=C4\CCCC(C)(C)C4)C32)O[C@H]1OC(C)=O (stereo partly specified)
[6]
  survivor count: 6 of 6

## CC1CN1C(=O)c1cc(C(=O)N2CC2C)cc(C(=O)N2CC2C)c1 (stereo unspecified)
dose: 12.5 mg/kg/injection, schedule: Q01DX009 (ip), vehicle: saline with Tween-80
  T/C: 127 % of control
dose: 25.0 mg/kg/injection, schedule: Q01DX009 (ip), vehicle: saline with Tween-80
  T/C: 127 % of control
dose: 25.0 mg/kg/injection, schedule: Q04DX003 (ip), vehicle: saline with Tween-80
  T/C: 131 % of control
dose: 50.0 mg/kg/injection, schedule: Q04DX003 (ip), vehicle: saline with Tween-80
  T/C: 127 % of control
[9]
  T/C: 127 % of control

## [O-]c1cc2c3c(c1)c1cc4c(cc1c[n+]3C=C2)OCO4
dose: 3.13 mg/kg/injection, schedule: Q01DX009 (ip), vehicle: other
  T/C: 127 and 139 % of control
dose: 6.25 mg/kg/injection, schedule: Q01DX009 (ip), vehicle: other
  T/C: 133 and 136 % of control
dose: 12.5 mg/kg/injection, schedule: Q01DX009 (ip), vehicle: other
  T/C: 130 and 148 % of control
dose: 25.0 mg/kg/injection, schedule: Q01DX009 (ip), vehicle: other
  T/C: 145 and 148 % of control
dose: 50.0 mg/kg/injection, schedule: Q01DX009 (ip), vehicle: other
  T/C: 141 % of control
dose: 100.0 mg/kg/injection, schedule: Q01DX009 (ip), vehicle: other
  survivor count: 0 of 6, 3 of 6, 5 of 6
dose: 200.0 mg/kg/injection, schedule: Q01DX009 (ip), vehicle: other
  survivor count: 0 of 6
dose: 400.0 mg/kg/injection, schedule: Q01DX009 (ip), vehicle: other
  survivor count: 0 of 6

## CC(=O)c1c(C)[nH]c(-c2ccccc2)c1NS(=O)(=O)c1ccc(N)cc1
[2]
  survivor count: 6 of 6
